# Library screening results

Data taken from ChEMBL document CHEMBL3988442, “University of Dundee, Small-Polar-MMV Screening Library” (2021).

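Whole-cell assay for inhibitors of Mycobacterium tuberculosis growth, labelled Cornell in the record; the read-out is not stated. The concentration is filed as 10 mM, unlikely as a test dose, so the dose is not known. Higher means stronger inhibition (inferred from two other growth screens of the library). About 53,000 compounds were tested under these conditions; 1.7% (about 900) showed 50% or more at least once.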

Results are given as percent effect. The controls that fix the scale are not given in the record; negative values are as filed. Compounds were drawn at random from those tested, without regard to their results.

CC(NC(=O)NCCCN(C)S(C)(=O)=O)c1ccc(Cl)cc1 (configuration not stated) read 8.176%. With CCNC(=O)N(Cc1ccoc1)C1CCCCC1 the screen gave 30.31%. CCN(C)Cc1cnc(S(=O)(=O)CC)n1CCOC read 22.43%. Cc1cc(C)cc(OCCN(C)C2CCOC2=O)c1 (configuration not stated) read 13.41%. With CN(C)CCN1CCN(C)c2nc(-c3ccccc3)ncc2C1=O the screen gave 20.21%. CCc1cnc(N)nc1N[C@@H](C)c1ncccc1C gave 1.25%. With COc1ccc(C(=O)CCC(=O)NCc2c(C)noc2C)cc1F the screen gave 1.204%.

CCN(CC)C(CNCc1ccc(O)cc1)c1ccco1 (configuration not stated) gave 5.564%. With O=C(COCC1CC1)Nc1ccn(Cc2cccc3cccnc23)n1 the screen gave 12.67%. With CC(C)C(NC(=O)Cc1ccccc1)C(=O)NCc1ccc(O)nc1 (configuration not stated) the screen gave -26.84%. For Cn1ccnc1CN1CCC2(CC1)CN(Cc1ccccc1)C(=O)CO2.O=C(O)C(F)(F)F the result was -33.83%. COc1cccc(COCC(=O)N2CCCC(n3ccnc3)C2)c1 (configuration not stated) gave -4.68%. Cc1cn(-c2ccccc2)nc1NS(=O)(=O)c1cccc(C(=O)O)c1 read 8.914%. With [H][C@@]12CCN(C(=O)CCc3ccccc3Cl)C[C@]1(COC)CCO2 the screen gave 12.88%.

With O=C(O)C(F)(F)F.c1coc(CN2CCc3nnc(COc4cncnc4)n3CC2)c1 the screen gave 21.79%. O=C(O)C(F)(F)F.O=C(O)C(F)(F)F.c1nc(CNC2CCOCC2)c2n1CCCN(CC1CC1)C2 read 1.636%. Cc1cnc(NC(=O)N2CCC(N3CCCCC3=O)CC2)s1 gave -51.76%. CCCn1nc2c(cc1=O)CN(CC(=O)Nc1ccncc1)CC2 read 15.39%. For COC(=O)C1CCN(C(=O)c2nnc3ccc(Cl)cc3n2)CC1 the result was 106.2%. For O=C(O)C(F)(F)F.O=C(O)C(F)(F)F.[H][C@@]12COC[C@]1(COc1ccccn1)CN(c1cc(OC)ncn1)C2 the result was 12.64%. Result for c1cncc(-c2nc3c(c(NCC4(c5ccncc5)CC4)n2)CCC3)c1 was 21.3%.

With O=C(C1SCCc2sccc21)N1CCN(CC(F)F)CC1 (configuration not stated) the screen gave -5.934%. With CCN(CC)CCSc1nnc(N2CCN(c3ccccc3)CC2)s1 the screen gave 13.25%. CC(=O)c1cccc(OCCCC(=O)N(C)Cc2cnn(C)c2)c1 read -38.27%. For [H][C@@]12C[C@H](C(=O)NCc3ccccc3)[C@@]([H])(CN(C(=O)NCC(C)C)C1)O2 the result was 17.6%. Cc1ncsc1C(=O)NC1CCN(Cc2ccc(C#N)cc2)CC1 read 15.43%. COC(=O)CCC(=O)N(Cc1ccc2cc[nH]c2c1)C1CC1 gave 90.28%. For O=S(=O)(c1c(F)cccc1F)N1CCCC1c1nnc2n1CCCCC2 (configuration not stated) the result was 8.641%.

O=C(c1ccno1)N1CCC2(CC1)C(=O)Nc1ccccc12 gave -7.927%. O=C(Cc1ccccc1)C1CCCN(Cc2cncn2C2CCCC2)C1 (configuration not stated) gave 27.79%. Result for O=C1NCCN1C1CCN(Cc2nc(-c3ccsc3)no2)CC1 was -2.18%. CCc1ccc(O)c(C(=O)NC2CCN(Cc3ccncc3)CC2)c1 read -8.748%. For O=S(=O)(Nc1ccc(N2CCOCC2)cn1)c1ccc(F)cc1 the result was 19.83%. For Cn1cc(C(=O)Nc2ccc(CN3CCOCC3)cn2)cn1 the result was 17.43%. CCc1nc(NS(=O)(=O)c2ccc(F)cc2Cl)no1 gave -4.544%.

With CN(C)CC1(O)CCCN(c2ccnc3c(C(F)(F)F)cccc23)C1 (configuration not stated) the screen gave 15.07%. For Cc1cccc(N2CC3(CCN(C(=O)NC(C)C)C3)CC2=O)c1 (configuration not stated) the result was -7.698%. COc1ccc(CN2CCC=C(C(C)NC(C)=O)C2)cc1 (configuration not stated) gave -18.62%. With c1ccc(CN2CCC(NCCc3ccc4c(c3)CCO4)CC2)nc1 the screen gave 8.897%. COc1ccc(CNC(C)Cn2cccn2)cc1OC (configuration not stated) read -2.814%. Result for [H][C@]12CCN(C(=O)Cc3cccs3)C[C@@]1([H])OCCN(S(C)(=O)=O)C2 was -13.21%. Result for CC(=O)c1cccc(OCCCC(=O)N(C)Cc2cscn2)c1 was -32.99%.

Cc1ccc(CN2CCCn3cnc(COCC4CC4)c3C2)o1.O=C(O)C(F)(F)F read 25.04%. COc1cccc([C@H]2CN(C(=O)c3noc4c3CCCC4)C[C@@H]2N)c1 gave 11.69%. With CCc1ccc(CN(Cc2ccco2)C(C)C(C)C)nc1 (configuration not stated) the screen gave 6.884%. With O=C(NCC1CCS(=O)(=O)C1)N(Cc1ccccn1)C1CC1 (configuration not stated) the screen gave -13.58%. With O=C(CCc1ccsc1)N1CCC(Cc2ccc(CO)cc2)C1 (configuration not stated) the screen gave 12.09%. For CCn1c(C)cc(C(=O)N2CCCC(n3nc(C)nc3C)C2)c1C (configuration not stated) the result was 17.97%. For O=C(c1ccsc1)N1CCC2(CC1)CCN(S(=O)(=O)C1CC1)CC2 the result was -1.464%.

For Cc1cccc(COC2COC3(CCN(Cc4ccoc4)CC3)C2)n1 (configuration not stated) the result was 8.753%. For c1ccc(CNC[C@H]2COCc3nc4cccnc4n32)cc1 the result was -35.82%. For CCC(CC)(CC)NC(=O)Nc1nnc(-c2ccccn2)s1 the result was 6.138%. CNC(=O)NC(C)c1nc(-c2ccccc2)c[nH]1 (configuration not stated) read 3.056%.

4 of the entries, repeated:

Compound,effect
O=C(CCc1ccsc1)N1CCC(Cc2ccc(CO)cc2)C1 (configuration not stated),12.09
CCC(CC)(CC)NC(=O)Nc1nnc(-c2ccccn2)s1,6.138
COc1ccc(CN2CCC=C(C(C)NC(C)=O)C2)cc1 (configuration not stated),-18.62
CCCn1nc2c(cc1=O)CN(CC(=O)Nc1ccncc1)CC2,15.39